{"source": "the supplement of paper PMC5949888", "note": "Most values lie at the floor of the assay. Slopes are relative: functional sequences can read slightly below zero."}
{"tested_on": "Saccharomyces cerevisiae PS128 hsf1 delta, HSF1(1-493) fusion", "experiment": "growth estimate (transactivation domain function in HSF1 fusion, heat-shock survival) (a.u. (slope of normalised read count over time)); higher = stronger growth at 37°C, i.e. more transactivation activity", "conditions": "library: random library"}
{"substance": "VIGSMLQNGSFLAVWWSTPG", "growth estimate": "< -0.25"}
{"substance": "MPRSNTAAGKFPTTAQSLME", "growth estimate": "< -0.25"}
{"substance": "RNLPRGT", "growth estimate": "< -0.25"}
{"substance": "SVRYTSGSISYFVELNCLDC", "growth estimate": "< -0.25"}
{"substance": "ESVND", "growth estimate": "< -0.25"}
{"substance": "RYWNFISNALSCLDAG", "growth estimate": "< -0.25"}
{"substance": "EIVRVGESALTRDEGKLLGT", "growth estimate": "< -0.25"}
{"substance": "EMCVSGNMRHQPIANIAGTV", "growth estimate": "< -0.25"}
{"substance": "ETSGHEELGL", "growth estimate": "< -0.25"}
{"substance": "TCAT", "growth estimate": "< -0.25"}
{"substance": "TRDAV", "growth estimate": "< -0.25"}
{"substance": "GAPLYIAQDRVYELKVRVIL", "growth estimate": "< -0.25"}
{"substance": "RVRVANRGSCVYYNCIHQDT", "growth estimate": "< -0.25"}
{"substance": "TKRETQANGMFQSWETEART", "growth estimate": "< -0.25"}
{"substance": "VSL", "growth estimate": "< -0.25"}
{"substance": "PRNQTCALLVESGQFSSGPD", "growth estimate": "< -0.25"}
{"substance": "PGVVG", "growth estimate": "< -0.25"}
{"substance": "LFSQCYGRTKTGPVPARLG", "growth estimate": "< -0.25"}
{"substance": "ETNS", "growth estimate": "< -0.25"}
{"substance": "QRLMTEHEEDYDRLWVR", "growth estimate": "< -0.25"}
{"substance": "QAIFTCTNARSPEPAKGKPS", "growth estimate": "< -0.25"}
{"substance": "VLVSPASMCWQANETPAQRR", "growth estimate": "< -0.25"}
{"substance": "VERLHRME", "growth estimate": "< -0.25"}
{"substance": "SVTRIIAFQSIHQLDDARPA", "growth estimate": -0.246}
{"substance": "IPCRRRGSQDPEASSP", "growth estimate": "< -0.25"}
{"substance": "FLLTK", "growth estimate": "< -0.25"}
{"substance": "GSGNFTMSPAEPLIS", "growth estimate": -0.243}
{"substance": "TDVESSCERM", "growth estimate": "< -0.25"}
{"substance": "GINSRLVRSGPQTSNN", "growth estimate": "< -0.25"}
{"substance": "HTCPHLIDGSVEGVNTLARP", "growth estimate": "< -0.25"}
{"substance": "FRPRPAP", "growth estimate": "< -0.25"}
{"substance": "IVSTAKGFAGLPRLTEVMEP", "growth estimate": -0.243}
{"substance": "VCSAPGQSCVQSNYPPSPSF", "growth estimate": "< -0.25"}
{"substance": "MLAD", "growth estimate": "< -0.25"}
{"substance": "TCRQLQSLLIGYGTSLAIRG", "growth estimate": "< -0.25"}
{"substance": "RNELGVRRTSWSGASDQPEC", "growth estimate": "< -0.25"}
{"substance": "SRLSQIYR", "growth estimate": "< -0.25"}
{"substance": "CGRR", "growth estimate": "< -0.25"}
{"substance": "TTKWTIDCKSHQ", "growth estimate": -0.114}
{"substance": "VSLIGFQVHSYQRYLITM", "growth estimate": "< -0.25"}
{"substance": "IMG", "growth estimate": "< -0.25"}
{"substance": "TDIQHGRADTTFSLA", "growth estimate": "< -0.25"}
{"substance": "IAFE", "growth estimate": -0.237}
{"substance": "AVGSLVGV", "growth estimate": "< -0.25"}
{"substance": "VYRTSRPKGSKNSQRQPV", "growth estimate": "< -0.25"}
{"substance": "GTYLPCGRRLCKDKGRPIMG", "growth estimate": "< -0.25"}
{"substance": "TLILPILCSRE", "growth estimate": "< -0.25"}
{"substance": "SASRPRVSVSTFCVSQPRVE", "growth estimate": "< -0.25"}
{"substance": "RHSSTLGLSRIRWLLDQRRP", "growth estimate": "< -0.25"}
{"substance": "VLATVLL", "growth estimate": "< -0.25"}
{"substance": "NMI", "growth estimate": "< -0.25"}
{"substance": "VVYKLTESGSGRRFVERCTW", "growth estimate": "< -0.25"}
{"substance": "LSLVRSFAFVLVSYRRRFG", "growth estimate": "< -0.25"}
{"substance": "SNRASLHWMNSLALSWFTSF", "growth estimate": "< -0.25"}
{"substance": "LKVGRGTRLRLGEVPLVLNG", "growth estimate": "< -0.25"}
{"substance": "CPLFYLRRVPSLGAYSSSRG", "growth estimate": "< -0.25"}
{"substance": "GYTGDSAMFSWTQRFMQLTE", "growth estimate": "< -0.25"}
{"substance": "HLLKP", "growth estimate": "< -0.25"}
{"substance": "RAAADIRHWSQSHFTTNHDW", "growth estimate": -0.243}
{"substance": "SITDDGPFGGVMKKWHLGVT", "growth estimate": "< -0.25"}
{"substance": "VKLVRMVTVVSVNYLSPCST", "growth estimate": "< -0.25"}
{"substance": "DATCRGGNSTHAPRPATAVE", "growth estimate": "< -0.25"}
{"substance": "AICDETLITDSGHIEGATWS", "growth estimate": "< -0.25"}
{"substance": "LLQNLAKGNDWSWHVCWNIR", "growth estimate": "< -0.25"}
{"substance": "VRVD", "growth estimate": "< -0.25"}
{"substance": "SGVRVNDRHGIRSCRIAEEE", "growth estimate": "< -0.25"}
{"substance": "LGFRKFLYCMGHSW", "growth estimate": "< -0.25"}
{"substance": "WINLVTRGRLECVCRPIVR", "growth estimate": "< -0.25"}
{"substance": "KRIEV", "growth estimate": "< -0.25"}
{"substance": "FTGGSRSTLGGYLTGWPSTH", "growth estimate": "< -0.25"}
{"substance": "DPPDLLVTRDF", "growth estimate": "< -0.25"}
{"substance": "RGCLRI", "growth estimate": "< -0.25"}
{"substance": "TISY", "growth estimate": "< -0.25"}
{"substance": "FDVGGSVEQRSIV", "growth estimate": "< -0.25"}
{"substance": "PRDEPGRTAFSPRSPTQPGG", "growth estimate": "< -0.25"}
{"substance": "PKVSRRNVKAGTDQTAQVKL", "growth estimate": "< -0.25"}
{"substance": "IDMICRSGDCY", "growth estimate": "< -0.25"}
{"substance": "SFWLIHFIFNRVLNAP", "growth estimate": "< -0.25"}
{"substance": "SHLMDRDRAVLQNALKTCNR", "growth estimate": "< -0.25"}
{"substance": "GMRVGSGPMWG", "growth estimate": "< -0.25"}
{"substance": "RGFGSFNPIPNAADLGRCVY", "growth estimate": "< -0.25"}
{"substance": "SQKRFDVRRLAGWDRRGVRM", "growth estimate": "< -0.25"}
{"substance": "SRGDMMFNRSGWCHQA", "growth estimate": "< -0.25"}
{"substance": "TQRERLRLVVL", "growth estimate": "< -0.25"}
{"substance": "WDDANNTCHVSRTRVHFNSA", "growth estimate": "< -0.25"}
{"substance": "LDETLVGPKT", "growth estimate": "< -0.25"}
{"substance": "PKGKRLRNCSGYGSRESSVS", "growth estimate": "< -0.25"}
{"substance": "DVVVWHLRETRHTFELGPWG", "growth estimate": "< -0.25"}
{"substance": "FRCGCLTFDHRAREVPRESS", "growth estimate": "< -0.25"}
{"substance": "GSGMAVAQERAYAPFVLE", "growth estimate": "< -0.25"}
{"substance": "DSRTMGSTLLG", "growth estimate": "< -0.25"}
{"substance": "PWVVSRDSFVKIGLTTYPYA", "growth estimate": "< -0.25"}
{"substance": "GDRLTEGTCL", "growth estimate": "< -0.25"}
{"substance": "PECNREVVYGVFSATGLANH", "growth estimate": "< -0.25"}
{"substance": "AVEYRGRRRLNPPEAVVRRR", "growth estimate": "< -0.25"}
{"substance": "YREGQAHARMELSVLGG", "growth estimate": "< -0.25"}
{"substance": "SWSRAPHQR", "growth estimate": -0.246}
{"substance": "SVGAEGA", "growth estimate": "< -0.25"}
{"substance": "EGVASRAGGRSAFIPGTL", "growth estimate": "< -0.25"}
{"substance": "MEDAGWSE", "growth estimate": "< -0.25"}
{"substance": "WETPASTDWTQITRMSEY", "growth estimate": -0.078}
{"substance": "GVKLGHF", "growth estimate": "< -0.25"}
{"substance": "LQMYQHNKFNG", "growth estimate": "< -0.25"}
{"substance": "KCFTQPVVT", "growth estimate": "< -0.25"}
{"substance": "THLKSQSTRGMLLHFSPGFT", "growth estimate": "< -0.25"}
{"substance": "VRRGEFSR", "growth estimate": -0.246}
{"substance": "SGSEWPPPLGSYAFPQHRWA", "growth estimate": -0.243}
{"substance": "VPLVRFSISEVCLIFMTEHN", "growth estimate": "< -0.25"}
{"substance": "SILQPLQLV", "growth estimate": "< -0.25"}
{"substance": "EFGEVMVESVLLSSCVDSRT", "growth estimate": "< -0.25"}
{"substance": "PKVWLTRLSSDNSASTSATF", "growth estimate": "< -0.25"}
{"substance": "LILFRIQKARS", "growth estimate": "< -0.25"}
{"substance": "VHLIH", "growth estimate": "< -0.25"}
{"substance": "SSLGTVGGAWLMF", "growth estimate": "< -0.25"}
{"substance": "WVGRRQGLSTRGPSKFSPAG", "growth estimate": "< -0.25"}
{"substance": "LHLRILSAWDYSRLLRSEVP", "growth estimate": "< -0.25"}
{"substance": "GRTCYKARRAFYQRRFSGLS", "growth estimate": "< -0.25"}
{"substance": "ARRWGFWGYAGQL", "growth estimate": "< -0.25"}
{"substance": "HIEIIATRDVCSLSVRHNAT", "growth estimate": "< -0.25"}
{"substance": "NSTT", "growth estimate": "< -0.25"}
{"substance": "GHSCHFCRTWCMTISWFIMM", "growth estimate": "< -0.25"}
{"substance": "GGRRISAGEAAM", "growth estimate": "< -0.25"}
{"substance": "PNSLGMGDPSPICSTAV", "growth estimate": "< -0.25"}
{"substance": "KFRFAWVQGKQVRHRPPHAV", "growth estimate": "< -0.25"}
{"substance": "SSLSW", "growth estimate": "< -0.25"}
{"substance": "GTSVKHLWGAKSFVCIPKHQ", "growth estimate": "< -0.25"}
{"substance": "RYLVSALRMGIIPNTHISRV", "growth estimate": "< -0.25"}
{"substance": "FMGIPNP", "growth estimate": "< -0.25"}
{"substance": "AQYTDEGAWLLW", "growth estimate": -0.0226}
{"substance": "GRRQEL", "growth estimate": "< -0.25"}
{"substance": "VSCRKSEFAP", "growth estimate": "< -0.25"}
{"substance": "ATGRHDNNGEIAGGNVSGAR", "growth estimate": "< -0.25"}
{"substance": "FRKIMSRREVGET", "growth estimate": "< -0.25"}
{"substance": "ILSWWDNSWMTSHRGL", "growth estimate": "< -0.25"}
{"substance": "RGWSIEVVWFVKSRRPSEK", "growth estimate": "< -0.25"}
{"substance": "GPPRSFGWYRWYKRNLGLMS", "growth estimate": "< -0.25"}
{"substance": "GHAIYLRFVGLARGVNSV", "growth estimate": "< -0.25"}
{"substance": "CEDCLEQCAYHSLRNCMRNR", "growth estimate": "< -0.25"}
{"substance": "EMQGVGQARIRR", "growth estimate": "< -0.25"}
{"substance": "HMTTRTAILRT", "growth estimate": "< -0.25"}
{"substance": "GGKVLSYRRALTFPLTLAGR", "growth estimate": "< -0.25"}
{"substance": "ESEPTDLYGRFLPEVLYG", "growth estimate": -0.179}
{"substance": "LVCHCGFHRL", "growth estimate": "< -0.25"}
{"substance": "VRQQLDVNSGRVRVRSPWGR", "growth estimate": "< -0.25"}
{"substance": "YYGAGPALYYGNYRSRVVSS", "growth estimate": "< -0.25"}
{"substance": "VVEIPNRCLDKDCTTKSPTR", "growth estimate": "< -0.25"}
{"substance": "LDF", "growth estimate": "< -0.25"}
{"substance": "ASLCR", "growth estimate": "< -0.25"}
{"substance": "GSINGSASSSQSYVITRFSS", "growth estimate": "< -0.25"}
{"substance": "LLREISVWVQAFW", "growth estimate": "< -0.25"}
{"substance": "QEDHAEKCFKSDCGHVCCGV", "growth estimate": "< -0.25"}
{"substance": "GPSVGNSRGRVTHDDRSSML", "growth estimate": "< -0.25"}
{"substance": "PTVINSRYLSLVGYEHSSKS", "growth estimate": "< -0.25"}
{"substance": "HRRKSQYELVVHLFTVTFVQ", "growth estimate": "< -0.25"}
{"substance": "AMAV", "growth estimate": "< -0.25"}
{"substance": "RQGRRNRVARRGVNVGR", "growth estimate": "< -0.25"}
{"substance": "RHGSQDQVGHM", "growth estimate": "< -0.25"}
{"substance": "ASGEIG", "growth estimate": "< -0.25"}
